Results published in publication PMC9456370.
Results are given in words; binding and its absence hold for the method and conditions named. Binding seen in cells or lysates may run through a third protein. These calls come from enrichment with a bait or labelling near it, and not all partners need be listed. Where a sequence is shown, tags or fusion partners need not be part of it.

Protein sequences, listed by entry. Tags and fused reporters are not part of them. Residues count along the entry.
UniProt P0AAI5: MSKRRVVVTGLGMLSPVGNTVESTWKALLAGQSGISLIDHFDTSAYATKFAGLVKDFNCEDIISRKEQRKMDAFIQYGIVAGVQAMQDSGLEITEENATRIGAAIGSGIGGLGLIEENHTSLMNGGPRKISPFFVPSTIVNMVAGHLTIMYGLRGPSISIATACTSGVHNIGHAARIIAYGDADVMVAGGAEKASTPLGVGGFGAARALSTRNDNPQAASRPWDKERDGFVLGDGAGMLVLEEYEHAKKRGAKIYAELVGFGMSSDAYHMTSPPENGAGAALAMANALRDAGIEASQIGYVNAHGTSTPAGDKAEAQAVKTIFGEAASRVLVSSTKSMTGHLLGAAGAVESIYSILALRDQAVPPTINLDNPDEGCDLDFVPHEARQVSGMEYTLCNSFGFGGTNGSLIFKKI
UniProt P0AAI3: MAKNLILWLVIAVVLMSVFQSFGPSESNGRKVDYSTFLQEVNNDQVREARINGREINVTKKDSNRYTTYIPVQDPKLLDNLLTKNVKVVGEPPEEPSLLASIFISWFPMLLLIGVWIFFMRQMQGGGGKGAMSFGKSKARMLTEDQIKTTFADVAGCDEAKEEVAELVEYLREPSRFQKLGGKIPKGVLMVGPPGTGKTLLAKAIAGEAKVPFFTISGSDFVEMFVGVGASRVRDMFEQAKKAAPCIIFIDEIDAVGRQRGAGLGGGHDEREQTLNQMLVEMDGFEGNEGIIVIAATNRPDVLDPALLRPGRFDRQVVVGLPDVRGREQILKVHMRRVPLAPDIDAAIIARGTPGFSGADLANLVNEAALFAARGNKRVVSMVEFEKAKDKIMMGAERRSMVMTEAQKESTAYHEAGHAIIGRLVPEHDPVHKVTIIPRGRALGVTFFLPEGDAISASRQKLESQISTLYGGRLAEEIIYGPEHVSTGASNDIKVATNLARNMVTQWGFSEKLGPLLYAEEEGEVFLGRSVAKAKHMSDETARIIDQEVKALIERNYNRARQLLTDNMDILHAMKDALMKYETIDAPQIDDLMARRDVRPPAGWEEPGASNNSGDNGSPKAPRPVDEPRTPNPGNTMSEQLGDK
UniProt P63224: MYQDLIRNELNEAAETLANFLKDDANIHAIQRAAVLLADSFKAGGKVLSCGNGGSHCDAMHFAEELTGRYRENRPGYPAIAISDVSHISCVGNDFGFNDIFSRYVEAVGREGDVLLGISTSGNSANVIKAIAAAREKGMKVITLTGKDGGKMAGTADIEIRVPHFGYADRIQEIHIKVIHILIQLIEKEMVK
UniProt P31554, residues 25-784: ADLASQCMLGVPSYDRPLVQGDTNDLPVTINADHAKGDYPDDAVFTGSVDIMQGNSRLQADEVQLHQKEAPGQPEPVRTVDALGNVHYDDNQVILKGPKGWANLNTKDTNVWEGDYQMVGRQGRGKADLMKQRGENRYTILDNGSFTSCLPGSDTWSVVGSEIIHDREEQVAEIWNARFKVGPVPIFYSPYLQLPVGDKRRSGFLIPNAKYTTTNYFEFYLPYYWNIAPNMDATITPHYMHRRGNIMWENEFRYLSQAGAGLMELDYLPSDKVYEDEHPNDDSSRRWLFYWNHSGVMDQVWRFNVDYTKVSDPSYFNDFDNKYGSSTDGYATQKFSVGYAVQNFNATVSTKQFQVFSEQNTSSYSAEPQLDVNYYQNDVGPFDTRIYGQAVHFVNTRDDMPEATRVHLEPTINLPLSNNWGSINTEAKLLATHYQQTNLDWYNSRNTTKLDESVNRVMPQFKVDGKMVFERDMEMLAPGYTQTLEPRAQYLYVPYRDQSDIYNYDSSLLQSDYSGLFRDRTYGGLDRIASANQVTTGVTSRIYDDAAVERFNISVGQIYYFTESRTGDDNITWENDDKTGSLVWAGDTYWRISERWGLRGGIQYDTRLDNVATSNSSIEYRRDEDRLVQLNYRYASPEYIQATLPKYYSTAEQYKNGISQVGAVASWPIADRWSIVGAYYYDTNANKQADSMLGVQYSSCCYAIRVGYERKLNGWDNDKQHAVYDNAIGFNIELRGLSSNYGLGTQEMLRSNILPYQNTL
UniProt P24205: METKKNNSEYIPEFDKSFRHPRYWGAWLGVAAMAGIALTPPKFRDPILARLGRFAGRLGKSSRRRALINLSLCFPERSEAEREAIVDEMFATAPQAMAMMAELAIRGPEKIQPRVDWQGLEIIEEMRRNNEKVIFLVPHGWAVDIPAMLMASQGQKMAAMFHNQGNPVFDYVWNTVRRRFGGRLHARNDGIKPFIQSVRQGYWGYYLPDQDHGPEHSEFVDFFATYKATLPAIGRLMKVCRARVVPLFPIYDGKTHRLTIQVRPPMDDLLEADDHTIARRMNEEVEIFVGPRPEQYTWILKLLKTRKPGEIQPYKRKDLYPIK

biological target: T1, His6-tagged LapD protein (E. coli K-12) (UniProt P0ADW3); test: affinity purification with mass spectrometry; His6-LapD (pCA24N JW5539 in BW25113) from IM fraction solubilized with 2% octyl-β-D-glucoside, on nickel-nitrilotriacetic acid beads, eluted with 250 mM and 100 mM imidazole; co-eluting proteins resolved on 12% SDS-PAGE (Coomassie) and identified by MALDI-TOF
T1 sequence: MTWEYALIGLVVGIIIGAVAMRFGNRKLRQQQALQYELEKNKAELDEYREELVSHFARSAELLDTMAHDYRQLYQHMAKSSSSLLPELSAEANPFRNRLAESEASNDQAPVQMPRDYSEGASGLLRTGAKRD

binding, binds:
FabF (from UniProt P0AAI5 1-413) (enzyme), FtsH (from UniProt P0AAI3 1-644) (enzyme), GmhA (from UniProt P63224 1-192) (enzyme), LptD (from UniProt P31554 25-784), LpxM (from UniProt P24205 1-323) (enzyme)
